Test results as given in patent US20250367313A1 (MULTITUDE, published 2025).
Results are given in words; binding and its absence hold for the method and conditions named. Binding can be weak; no strength is given.

How the values were obtained:
[1] = biological target: primate MUC18 (primate); assay: flow cytometry on A375 cells expressing primate MUC18, FITC-A; single antibody concentration, not given
[2] = biological target: primate MUC18 (primate); assay: flow cytometry on cells expressing primate MUC18
[3] = biological target: primate MUC18 (primate); assay: flow cytometry on A375 cells expressing primate MUC18

Measured: binding

B1: J253 (antibody, V domains shown)
VH: QVQLQQSGAELVKPGASVKLSCKASGYTFTSYDINWVRQRPEQGLEWIGWIFPGDGSTDYNEKFKGKATLTTDKSSSTAYMQLSRLTSEDSAVYFCARYHFFDNWGQGTTLTVSS
VL: DIVITQDELSNPVTSGESVSISCRSSKSLLYKDGKTYLSWFLQRPGQSPQLLIYLMSTRASGVSDRFSGSGSGTDFTLEISRVKAEDVGVYYCQQLVEYPYTFGGGTKLEIK
notes: also called anti-MUC18 antibody (J253)
binds: all assays above
